# Data taken from PubChem BioAssay (NCATS).
# Inconclusive means that the source gave no clear call. Such entries were picked first, then a sample of the others. Potencies beside an inconclusive call are fits to weak or partial responses and may not hold up. Active and inactive are the calls of the source. Calls follow the shape of the dose curve; as a rule, active = well fitted cell-killing curve with a large enough effect; inconclusive = small, poorly fitted or top-dose-only effect, or effect the other way; inactive = no such curve, though single readings can be large or run the other way.
# Test: Quantitative High-Throughput drug screen in 47 multiple myeloma cell lines against the NCATS MIPE library collection: EJM_DSMZ cell viability assay (AID 1918926; also: nearly all actives have a fitted effect of over 30% in size;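 as to viability, % of control: 100% = DMSO-only wells and 0% = media-only wells without cells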)
# Conditions: EJM myeloma cell viability, CellTiter-Glo ATP, 48 h; series mostly up to 45.8 µM; viability, % of control: at the top concentration
# Procedure, shortened: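 Inhibition of cell viability is measured here. Each line was plated at 500 cells per well, treated with MIPE 4.0 drugs, kept 48 hours at 37C, then assayed for ATP content by CellTiter-Glo luminescence.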
# Potency is read from the fitted curve at half-maximal effect.
SMILES,Potency,"viability, % of control"
O=C(c1cc(Cc2n[nH]c(=O)c3ccccc23)ccc1F)N1CCN(C(=O)C2CC2)CC1,"inconclusive: 23.5 µM [cytotoxic, single point]",
CCOC(=O)N1CCN([N+]([O-])=NOc2ccc([N+](=O)[O-])cc2C#N)CC1,"inconclusive: 1.32 µM [cytotoxic, full curve]",
CCOc1cc(N2CCC(O)CC2)ccc1Nc1ncc2c(n1)N(C)c1ccccc1C(=O)N2C,"inconclusive: 16.6 µM [cytotoxic, partial curve]",
NC(=O)c1ncn([C@@H]2O[C@H](CO)[C@@H](O)[C@@H]2O)n1,,inactive: 112%
CN[C@H]1CCc2cc(OC)c(OC)c(OC)c2-c2ccc(OC)c(=O)cc21,"inconclusive: 0.0059 µM [cytotoxic, full curve]",
C[C@H](Cn1cnc2c(N)ncnc21)OCP(=O)(O)O,,inactive: 127%
CCn1c(-c2nonc2N)nc2cnc(Oc3cccc(NC(=O)c4ccc(OCCN5CCOCC5)cc4)c3)cc21,"inconclusive: 20.9 µM [cytotoxic, partial curve]",
CN1CCC(COc2cnc(-c3cccc(Cn4nc(-c5cccc(C#N)c5)ccc4=O)c3)nc2)CC1,"inconclusive: 0.0132 µM [cytotoxic, full curve]",
CS(=O)(=O)c1ccc([C@@H](O)[C@@H](CO)NC(=O)C(Cl)Cl)cc1,,inactive: 87.8%
Cc1nnc(NS(=O)(=O)c2ccc(N)cc2)s1,"inconclusive: 6.62 µM [cytotoxic, partial curve, poor fit]",
CCCc1cc(C(N)=S)ccn1,,inactive: 84.8%
C[C@]12C=CC(=O)N[C@@H]1CC[C@H]1[C@H]3CC[C@@H](C(=O)Nc4cc(C(F)(F)F)ccc4C(F)(F)F)[C@@]3(C)CC[C@@H]12,"inconclusive: 14.8 µM [cytotoxic, partial curve]",
COc1ccccc1OCC(O)COC(N)=O (stereo not given),,inactive: 91.6%
C#Cc1cccc(Nc2ncnc3cc(OCCOC)c(OCCOC)cc23)c1,active: 6.62 µM,
CC(C)(Sc1cc(C(C)(C)C)c(O)c(C(C)(C)C)c1)Sc1cc(C(C)(C)C)c(O)c(C(C)(C)C)c1,"inconclusive: 26.4 µM [cytotoxic, single point]",
O=C(c1ccc(OCCN2CCCCC2)cc1)c1c(-c2ccc(O)cc2)sc2cc(O)ccc12,"inconclusive: 26.4 µM [cytotoxic, single point]",
Cc1cnc(CNC(=O)c2c(=O)c3ccc(N4CCCN(C)CC4)nc3n3c2sc2ccccc23)cn1,"inconclusive: 11.5 µM [cytotoxic, partial curve, poor fit]",
COc1ccc2c3n(c(=NC(=O)c4cccnc4)nc2c1OC)CCN3,active: 7.43 µM,
OCC(O)C(O)C(O)CO (stereo not given),,inactive: 91.9%
CCOC(=O)N1CCN([N+]([O-])=NOc2cc(ON=[N+]([O-])N3CCN(C(=O)OCC)CC3)c([N+](=O)[O-])cc2[N+](=O)[O-])CC1,active: 2.64 µM,

# Full records, looked up by structure.
# CCOC(=O)N1CCN([N+]([O-])=NOc2ccc([N+](=O)[O-])cc2C#N)CC1 as listed: Potency: inconclusive: 1.32 µM [cytotoxic, full curve]
# COc1ccccc1OCC(O)COC(N)=O (stereo not given) as listed: viability, % of control: inactive: 91.6%

# Carrying on:

SMILES,Potency,"viability, % of control"
OCCN1C[C@H](O)[C@@H](O)[C@H](O)[C@@H]1CO,,inactive: 130%
Cc1ccc(S(=O)(=O)Nc2nc3ccccc3nc2Nc2ccc3nsnc3c2)cc1,"inconclusive: 8.12 µM [cytotoxic, partial curve]",
NS(=O)(=O)OC[C@@H]1C[C@@H](n2ccc3c(N[C@H]4CCc5ccccc54)ncnc32)C[C@H]1O,"inconclusive: 0.0118 µM [cytotoxic, full curve, poor fit]",
CC[C@]12C=CCN3CC[C@@]4(c5cc([C@@]6(C(=O)OC)C[C@H]7C[C@@H](C(C)(F)F)CN(Cc8c6[nH]c6ccccc86)C7)c(OC)cc5N(C)[C@H]4[C@@](O)(C(=O)OC)[C@H]1OC(C)=O)[C@@H]32,active: 0.118 µM,
CC(=O)N1CCN(c2ccc(OCc3nn(C)c(C)c3-c3cccc4c(CCCOc5cccc6ccccc56)c(C(=O)O)n(Cc5cccnc5)c34)cc2)CC1,active: 0.105 µM,
c1ccc2c(CCNc3ccc(Nc4ccncc4)cc3)c[nH]c2c1,active: 14.8 µM,
CCCCCCCN(CC)CCCC(O)c1ccc(NS(C)(=O)=O)cc1 (stereo not given),"inconclusive: 33.2 µM [cytotoxic, single point]",
COc1cc(F)c(C(C)C)cc1-c1ccc(C(F)(F)F)cc1CN1C(=O)O[C@H](c2cc(C(F)(F)F)cc(C(F)(F)F)c2)[C@@H]1C,,inactive: 89.8%
CO[C@@]12[C@H](COC(N)=O)C3=C(C(=O)C(C)=C(N)C3=O)N1C[C@@H]1N[C@@H]12,"inconclusive: 37.2 µM [cytotoxic, single point]",
COc1ccc(Nc2cc(-c3cnc(N)nc3)nc(N3CCOCC3)n2)cn1,"inconclusive: 14.8 µM [cytotoxic, partial curve]",
CCC1=C[C@@H]2CN(C1)Cc1c([nH]c3ccccc13)[C@@](C(=O)OC)(c1cc3c(cc1OC)N(C)[C@@H]1[C@@](O)(C(=O)OC)[C@H](OC(C)=O)[C@]4(CC)C=CCN5CC[C@]31[C@@H]54)C2,active: 1.05 µM,
CC(C)c1nn(-c2c(Cl)cccc2Cl)c2nc(Cc3ccc(OCCO)cc3)[nH]c(=O)c12,active: 0.132 µM,
C[N+](C)([O-])CCNc1ccc(NCC[N+](C)(C)[O-])c2c1C(=O)c1c(O)ccc(O)c1C2=O,"inconclusive: 11.8 µM [cytotoxic, partial curve, poor fit]",
CC#C[C@]1(O)CC[C@H]2[C@@H]3CCC4=CC(=O)CCC4=C3[C@@H](c3ccc(N(C)C)cc3)C[C@@]21C,active: 1.32 µM,
CC(=O)O[C@H]1C[C@@H]2CC[C@H]3[C@H]4C[C@H]([N+]5(C)CCCCC5)[C@@H](OC(C)=O)[C@@]4(C)CC[C@@H]3[C@@]2(C)C[C@H]1[N+]1(C)CCCCC1,,inactive: 109%
O=C(O)CCNc1cc(N2CCc3ccccc3CC2)nc(-c2ccccn2)n1,"inconclusive: 23.5 µM [cytotoxic, single point]",
CC(C)(O)Cn1c(NC(=O)c2ccc(-c3cn[nH]c3)s2)nc2cc(CN3CCOCC3)ccc21,active: 1.05 µM,
CC(C)N(CC[C@H](c1ccccc1)c1cc(CO)ccc1O)C(C)C,,inactive: 95.4%
CNC(=O)c1ccccc1Nc1nc(Nc2ccc(N3CCOCC3)cc2OC)ncc1Cl,active: 13.2 µM,
Nc1nc(Nc2ccc(S(N)(=O)=O)cc2)nn1C(=O)c1c(F)cccc1F,active: 6.62 µM,
